Measured values: US20100028355A1
These are yes or no findings as the source states them, for the method shown. Binding seen in cells or lysates may run through a third protein. Some results given as binding are weak or reduced against the parent protein; the word gives no strength. Where a sequence is shown, tags or fusion partners need not be part of it.

Sequences of proteins named here, by UniProt entry; tags and fusion partners are left off. Residues count along the entry.
UniProt P35991, residues 2-659: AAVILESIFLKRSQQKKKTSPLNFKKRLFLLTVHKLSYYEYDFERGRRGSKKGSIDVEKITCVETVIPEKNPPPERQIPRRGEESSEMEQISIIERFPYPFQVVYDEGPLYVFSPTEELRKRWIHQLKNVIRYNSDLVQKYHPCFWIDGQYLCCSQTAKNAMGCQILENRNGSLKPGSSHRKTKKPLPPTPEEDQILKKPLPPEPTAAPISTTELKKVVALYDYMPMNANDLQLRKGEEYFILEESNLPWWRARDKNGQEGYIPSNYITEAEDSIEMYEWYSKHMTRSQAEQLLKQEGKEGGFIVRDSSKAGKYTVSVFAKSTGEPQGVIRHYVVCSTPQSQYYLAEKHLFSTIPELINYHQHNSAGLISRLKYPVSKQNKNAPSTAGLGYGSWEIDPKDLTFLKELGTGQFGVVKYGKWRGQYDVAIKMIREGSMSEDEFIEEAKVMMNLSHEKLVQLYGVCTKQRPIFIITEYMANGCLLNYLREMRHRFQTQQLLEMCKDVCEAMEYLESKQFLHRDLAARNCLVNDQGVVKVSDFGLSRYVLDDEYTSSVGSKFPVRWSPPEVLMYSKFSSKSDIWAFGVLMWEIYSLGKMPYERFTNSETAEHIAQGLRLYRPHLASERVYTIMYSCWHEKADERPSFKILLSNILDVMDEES

How the values were obtained:
[1] = target: Bruton's tyrosine kinase (BTK) (mouse) (UniProt P35991); assay: GST pull-down from homogenate of mouse hind limb hypoxic tissue, Western blot with anti-BTK antibody
[2] = target: Bruton's tyrosine kinase (BTK) (mouse) (UniProt P35991); assay: GST pull-down from bone marrow cell lysate or ischemic tissue homogenate, Coomassie gel and anti-BTK/anti-GST blots (figure legend)
[3] = target: Bruton's tyrosine kinase (BTK) (mouse) (UniProt P35991); assay: GST pull-down from mouse bone marrow cell lysate, Western blot with anti-BTK antibody

- binding [1]: binds
- binding [2]: binds
- binding [3]: binds
B1: GST-HIMF fusion protein (protein, mouse, UniProt Q9EP95 24-111, looked up, not shown: a dimerising Fc or GST)
chain: DETIEIIVENKVKELLANPANYPSTVTKTLSCTSVKTMNRWASCPAGMTATGCACGFACGSWEIQSGDTCNCLCLLVDWTTARCCQLS
